# Reference: PMC8273886 (Journal of Medicinal Chemistry, 2021)
# Test: general procedure: Fmoc solid-phase peptide synthesis; 2-chlorotrityl resin; 2-(6-chloro-1H-benzo-triazol-1-yl)-1,1,3,3-tetramethylaminium hexafluorophosphat
# Settings: whole synthesis, 215 nm
row,Substance,final HPLC purity [%]
1,"PEPTIDE1{C.Y.G.G.F.L.R.R.C.I.R.P.K.L.K}$PEPTIDE1,PEPTIDE1,1:R1-15:R2|PEPTIDE1,PEPTIDE1,1:R3-9:R3$$$V2.0",>95

# Same assay, conditions: whole synthesis, RP-HPLC (SFTI-1, helianorphin 1-4 and 19) or RP-UPLC (helianorphin 5-18), automatic peak integration
row,Substance,final HPLC purity [%]
1,"PEPTIDE1{C.T.K.S.I.P.P.I.C.F.P.D.G.R}$PEPTIDE1,PEPTIDE1,1:R1-14:R2|PEPTIDE1,PEPTIDE1,1:R3-9:R3$$$V2.0",100.0
2,c-CTfflkPICFPDGR,94.2
3,c-CTffbrPICFPDGR,100.0
4,"PEPTIDE1{C.Y.G.G.F.L.R.R.C.I.R.P.K.L.K}$PEPTIDE1,PEPTIDE1,1:R1-15:R2|PEPTIDE1,PEPTIDE1,1:R3-9:R3$$$V2.0",99.9
5,cyclo(CFPDGRCTYGGFLR) (disulfide 1-7; SMILES CC(C)C[C@@H]1NC(=O)[C@H](Cc2ccccc2)NC(=O)CNC(=O)CNC(=O)[C@H](Cc2ccc(O)cc2)NC(=O)[C@H]([C@@H](C)O)NC(=O)[C@@H]2CSSC[C@H](NC(=O)[C@H](CCCNC(=N)N)NC1=O)C(=O)N[C@@H](Cc1ccccc1)C(=O)N1CCC[C@H]1C(=O)N[C@@H](CC(=O)O)C(=O)NCC(=O)N[C@@H](CCCNC(=N)N)C(=O)N2),99.3
6,cyclo(CRIRPKLKCTYGGFLR) (disulfide 1-9; SMILES CC[C@H](C)[C@@H]1NC(=O)[C@H](CCCNC(=N)N)NC(=O)[C@@H]2CSSC[C@H](NC(=O)[C@H](CCCCN)NC(=O)[C@H](CC(C)C)NC(=O)[C@H](CCCCN)NC(=O)[C@@H]3CCCN3C(=O)[C@H](CCCNC(=N)N)NC1=O)C(=O)N[C@@H]([C@@H](C)O)C(=O)N[C@@H](Cc1ccc(O)cc1)C(=O)NCC(=O)NCC(=O)N[C@@H](Cc1ccccc1)C(=O)N[C@@H](CC(C)C)C(=O)N[C@@H](CCCNC(=N)N)C(=O)N2),99.1
7,cyclo(CFPDGRCYGGFLRI) (disulfide 1-7; SMILES CC[C@H](C)[C@@H]1NC(=O)[C@H](CCCNC(=N)N)NC(=O)[C@H](CC(C)C)NC(=O)[C@H](Cc2ccccc2)NC(=O)CNC(=O)CNC(=O)[C@H](Cc2ccc(O)cc2)NC(=O)[C@@H]2CSSC[C@H](NC1=O)C(=O)N[C@@H](Cc1ccccc1)C(=O)N1CCC[C@H]1C(=O)N[C@@H](CC(=O)O)C(=O)NCC(=O)N[C@@H](CCCNC(=N)N)C(=O)N2),99.3
8,cyclo(CTKSIPPICYGGFLRRIRPKLK) (disulfide 1-9; SMILES CC[C@H](C)[C@@H]1NC(=O)[C@H](CCCNC(=N)N)NC(=O)[C@H](CCCNC(=N)N)NC(=O)[C@H](CC(C)C)NC(=O)[C@H](Cc2ccccc2)NC(=O)CNC(=O)CNC(=O)[C@H](Cc2ccc(O)cc2)NC(=O)[C@@H]2CSSC[C@H](NC(=O)[C@H](CCCCN)NC(=O)[C@H](CC(C)C)NC(=O)[C@H](CCCCN)NC(=O)[C@@H]3CCCN3C(=O)[C@H](CCCNC(=N)N)NC1=O)C(=O)N[C@@H]([C@@H](C)O)C(=O)N[C@@H](CCCCN)C(=O)N[C@@H](CO)C(=O)N[C@@H]([C@@H](C)CC)C(=O)N1CCC[C@H]1C(=O)N1CCC[C@H]1C(=O)N[C@@H]([C@@H](C)CC)C(=O)N2),99.7
9,cyclo(CTKSIPPICYGGFLRRI) (disulfide 1-9; SMILES CC[C@H](C)[C@@H]1NC(=O)[C@H](CCCNC(=N)N)NC(=O)[C@H](CCCNC(=N)N)NC(=O)[C@H](CC(C)C)NC(=O)[C@H](Cc2ccccc2)NC(=O)CNC(=O)CNC(=O)[C@H](Cc2ccc(O)cc2)NC(=O)[C@@H]2CSSC[C@H](NC1=O)C(=O)N[C@@H]([C@@H](C)O)C(=O)N[C@@H](CCCCN)C(=O)N[C@@H](CO)C(=O)N[C@@H]([C@@H](C)CC)C(=O)N1CCC[C@H]1C(=O)N1CCC[C@H]1C(=O)N[C@@H]([C@@H](C)CC)C(=O)N2),96.0

# Same assay, conditions: whole synthesis, RP-HPLC (SFTI-1, helianorphin 1-4 and 19) or RP-UPLC (helianorphin 5-18), automatic peak integration, bicyclic
row,Substance,final HPLC purity [%]
1,c-CTASIPPICYGGFR,98.3
2,c-CTASIPPICfflkR,93.5
3,c-CTASIPPICYGGFLR,100.0
4,c-CTASIPPICffbrLRRIRpKLK,100.0
5,c-CTASIPPICffbrR,100.0
6,c-CTASIPPICffbrLRRIRPKLK,100.0
7,c-CTYGGFPICFPDGR,99.5
8,c-CYGGFLRRICFPDGR,99.9

# HELM strings list residues between dots; [ac] is acetyl, [am] amide, other brackets name non-standard units. Bridge positions count the residues as written; N and C are the ends.
